Measured values reported in publication PMC4695046.
Results are given in words; binding and its absence hold for the method and conditions named. Binding seen in cells or lysates may run through a third protein. Binding can be weak; no strength is given.

Amino acid sequences for entries named in this document (tags omitted). A change or cut given only in a name is not applied to a line headed by its entry.
UniProt P07339: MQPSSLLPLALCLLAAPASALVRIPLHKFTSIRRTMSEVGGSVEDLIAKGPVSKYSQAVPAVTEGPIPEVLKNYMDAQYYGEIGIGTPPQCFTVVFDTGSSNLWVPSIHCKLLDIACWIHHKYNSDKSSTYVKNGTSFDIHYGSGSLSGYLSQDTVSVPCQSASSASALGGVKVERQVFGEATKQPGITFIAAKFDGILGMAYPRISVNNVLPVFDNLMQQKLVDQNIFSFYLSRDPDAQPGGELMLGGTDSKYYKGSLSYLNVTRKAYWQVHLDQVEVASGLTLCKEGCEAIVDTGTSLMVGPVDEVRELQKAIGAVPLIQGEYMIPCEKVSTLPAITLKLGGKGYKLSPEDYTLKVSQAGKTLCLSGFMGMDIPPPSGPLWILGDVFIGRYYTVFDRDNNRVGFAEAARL
UniProt P46379: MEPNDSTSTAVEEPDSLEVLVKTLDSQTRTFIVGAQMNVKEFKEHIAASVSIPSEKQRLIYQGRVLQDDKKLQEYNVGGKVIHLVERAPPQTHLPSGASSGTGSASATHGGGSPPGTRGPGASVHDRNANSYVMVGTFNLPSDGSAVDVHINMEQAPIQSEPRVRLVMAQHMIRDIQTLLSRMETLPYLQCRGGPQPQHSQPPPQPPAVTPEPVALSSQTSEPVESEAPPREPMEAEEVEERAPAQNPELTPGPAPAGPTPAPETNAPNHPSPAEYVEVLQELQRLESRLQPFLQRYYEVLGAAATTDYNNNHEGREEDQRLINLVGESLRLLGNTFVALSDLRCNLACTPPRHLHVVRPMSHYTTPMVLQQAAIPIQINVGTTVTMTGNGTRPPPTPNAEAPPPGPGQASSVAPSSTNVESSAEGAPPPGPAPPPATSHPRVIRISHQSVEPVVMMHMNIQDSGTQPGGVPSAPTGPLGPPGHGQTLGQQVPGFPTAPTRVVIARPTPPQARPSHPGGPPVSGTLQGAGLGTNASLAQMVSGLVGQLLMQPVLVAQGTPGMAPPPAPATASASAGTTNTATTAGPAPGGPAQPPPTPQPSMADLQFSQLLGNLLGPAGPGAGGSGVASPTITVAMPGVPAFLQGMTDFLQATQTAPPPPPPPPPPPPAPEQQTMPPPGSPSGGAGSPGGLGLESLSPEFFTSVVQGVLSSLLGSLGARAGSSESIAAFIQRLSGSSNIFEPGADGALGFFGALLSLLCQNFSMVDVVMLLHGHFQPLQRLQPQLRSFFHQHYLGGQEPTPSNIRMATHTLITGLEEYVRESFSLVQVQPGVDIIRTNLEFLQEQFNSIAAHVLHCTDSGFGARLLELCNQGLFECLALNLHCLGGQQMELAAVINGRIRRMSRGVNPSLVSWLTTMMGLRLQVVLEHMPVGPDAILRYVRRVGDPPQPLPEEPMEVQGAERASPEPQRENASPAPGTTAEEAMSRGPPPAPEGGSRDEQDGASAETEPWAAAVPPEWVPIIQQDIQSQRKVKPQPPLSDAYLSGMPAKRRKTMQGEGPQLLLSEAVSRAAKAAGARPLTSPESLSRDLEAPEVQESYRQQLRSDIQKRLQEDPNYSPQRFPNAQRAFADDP

B1: full-length TRPS1, radio-labeled, synthesized in a reticulocyte lysate system (protein, UniProt Q9UHF7 1-1281)
chain: MVRKKNPPLRNVASEGEGQILEPIGTESKVSGKNKEFSADQMSENTDQSDAAELNHKEEHSLHVQDPSSSSKKDLKSAVLSEKAGFNYESPSKGGNFPSFPHDEVTDRNMLAFSSPAAGGVCEPLKSPQRAEADDPQDMACTPSGDSLETKEDQKMSPKATEETGQAQSGQANCQGLSPVSVASKNPQVPSDGGVRLNKSKTDLLVNDNPDPAPLSPELQDFKCNICGYGYYGNDPTDLIKHFRKYHLGLHNRTRQDAELDSKILALHNMVQFSHSKDFQKVNRSVFSGVLQDINSSRPVLLNGTYDVQVTSGGTFIGIGRKTPDCQGNTKYFRCKFCNFTYMGNSSTELEQHFLQTHPNKIKASLPSSEVAKPSEKNSNKSIPALQSSDSGDLGKWQDKITVKAGDDTPVGYSVPIKPLDSSRQNGTEATSYYWCKFCSFSCESSSSLKLLEHYGKQHGAVQSGGLNPELNDKLSRGSVINQNDLAKSSEGETMTKTDKSSSGAKKKDFSSKGAEDNMVTSYNCQFCDFRYSKSHGPDVIVVGPLLRHYQQLHNIHKCTIKHCPFCPRGLCSPEKHLGEITYPFACRKSNCSHCALLLLHLSPGAAGSSRVKHQCHQCSFTTPDVDVLLFHYESVHESQASDVKQEANHLQGSDGQQSVKESKEHSCTKCDFITQVEEEISRHYRRAHSCYKCRQCSFTAADTQSLLEHFNTVHCQEQDITTANGEEDGHAISTIKEEPKIDFRVYNLLTPDSKMGEPVSESVVKREKLEEKDGLKEKVWTESSSDDLRNVTWRGADILRGSPSYTQASLGLLTPVSGTQEQTKTLRDSPNVEAAHLARPIYGLAVETKGFLQGAPAGGEKSGALPQQYPASGENKSKDESQSLLRRRRGSGVFCANCLTTKTSLWRKNANGGYVCNACGLYQKLHSTPRPLNIIKQNNGEQIIRRRTRKRLNPEALQAEQLNKQQRGSNEEQVNGSPLERRSEDHLTESHQREIPLPSLSKYEAQGSLTKSHSAQQPVLVSQTLDIHKRMQPLHIQIKSPQESTGDPGNSSSVSEGKGSSERGSPIEKYMRPAKHPNYSPPGSPIEKYQYPLFGLPFVHNDFQSEADWLRFWSKYKLSVPGNPHYLSHVPGLPNPCQNYVPYPTFNLPPHFSAVGSDNDIPLDLAIKHSRPGPTANGASKEKTKAPPNVKNEGPLNVVKTEKVDRSTQDELSTKCVHCGIVFLDEVMYALHMSCHGDSGPFQCSICQHLCTDKYDFTTHIQRGLHRNNAQVEKNGKPKE
modifications: [35S]methionine-labeled
B2: TRPS1 fragment F5 (aa 635–1281) (domain or fragment, UniProt Q9UHF7 635-1281)
chain: SVHESQASDVKQEANHLQGSDGQQSVKESKEHSCTKCDFITQVEEEISRHYRRAHSCYKCRQCSFTAADTQSLLEHFNTVHCQEQDITTANGEEDGHAISTIKEEPKIDFRVYNLLTPDSKMGEPVSESVVKREKLEEKDGLKEKVWTESSSDDLRNVTWRGADILRGSPSYTQASLGLLTPVSGTQEQTKTLRDSPNVEAAHLARPIYGLAVETKGFLQGAPAGGEKSGALPQQYPASGENKSKDESQSLLRRRRGSGVFCANCLTTKTSLWRKNANGGYVCNACGLYQKLHSTPRPLNIIKQNNGEQIIRRRTRKRLNPEALQAEQLNKQQRGSNEEQVNGSPLERRSEDHLTESHQREIPLPSLSKYEAQGSLTKSHSAQQPVLVSQTLDIHKRMQPLHIQIKSPQESTGDPGNSSSVSEGKGSSERGSPIEKYMRPAKHPNYSPPGSPIEKYQYPLFGLPFVHNDFQSEADWLRFWSKYKLSVPGNPHYLSHVPGLPNPCQNYVPYPTFNLPPHFSAVGSDNDIPLDLAIKHSRPGPTANGASKEKTKAPPNVKNEGPLNVVKTEKVDRSTQDELSTKCVHCGIVFLDEVMYALHMSCHGDSGPFQCSICQHLCTDKYDFTTHIQRGLHRNNAQVEKNGKPKE
modifications: [35S]methionine-labeled
B3: TRPS1 fragment F6 (635–1184) (domain or fragment, UniProt Q9UHF7 635-1184)
chain: SVHESQASDVKQEANHLQGSDGQQSVKESKEHSCTKCDFITQVEEEISRHYRRAHSCYKCRQCSFTAADTQSLLEHFNTVHCQEQDITTANGEEDGHAISTIKEEPKIDFRVYNLLTPDSKMGEPVSESVVKREKLEEKDGLKEKVWTESSSDDLRNVTWRGADILRGSPSYTQASLGLLTPVSGTQEQTKTLRDSPNVEAAHLARPIYGLAVETKGFLQGAPAGGEKSGALPQQYPASGENKSKDESQSLLRRRRGSGVFCANCLTTKTSLWRKNANGGYVCNACGLYQKLHSTPRPLNIIKQNNGEQIIRRRTRKRLNPEALQAEQLNKQQRGSNEEQVNGSPLERRSEDHLTESHQREIPLPSLSKYEAQGSLTKSHSAQQPVLVSQTLDIHKRMQPLHIQIKSPQESTGDPGNSSSVSEGKGSSERGSPIEKYMRPAKHPNYSPPGSPIEKYQYPLFGLPFVHNDFQSEADWLRFWSKYKLSVPGNPHYLSHVPGLPNPCQNYVPYPTFNLPPHFSAVGSDNDIPLDLAIKHSRPGPTANGASKEK
modifications: [35S]methionine-labeled
B4: TRPS1 fragment F9 (aa 635–984) (domain or fragment, UniProt Q9UHF7 635-984)
chain: SVHESQASDVKQEANHLQGSDGQQSVKESKEHSCTKCDFITQVEEEISRHYRRAHSCYKCRQCSFTAADTQSLLEHFNTVHCQEQDITTANGEEDGHAISTIKEEPKIDFRVYNLLTPDSKMGEPVSESVVKREKLEEKDGLKEKVWTESSSDDLRNVTWRGADILRGSPSYTQASLGLLTPVSGTQEQTKTLRDSPNVEAAHLARPIYGLAVETKGFLQGAPAGGEKSGALPQQYPASGENKSKDESQSLLRRRRGSGVFCANCLTTKTSLWRKNANGGYVCNACGLYQKLHSTPRPLNIIKQNNGEQIIRRRTRKRLNPEALQAEQLNKQQRGSNEEQVNGSPLERRS
modifications: [35S]methionine-labeled
B5: TRPS1 fragment F10 (aa 635–819) (domain or fragment, UniProt Q9UHF7 635-819)
chain: SVHESQASDVKQEANHLQGSDGQQSVKESKEHSCTKCDFITQVEEEISRHYRRAHSCYKCRQCSFTAADTQSLLEHFNTVHCQEQDITTANGEEDGHAISTIKEEPKIDFRVYNLLTPDSKMGEPVSESVVKREKLEEKDGLKEKVWTESSSDDLRNVTWRGADILRGSPSYTQASLGLLTPVSG
modifications: [35S]methionine-labeled
B6: TRPS1 fragment F1 (aa 1185–1281) (domain or fragment, UniProt Q9UHF7 1185-1281)
chain: TKAPPNVKNEGPLNVVKTEKVDRSTQDELSTKCVHCGIVFLDEVMYALHMSCHGDSGPFQCSICQHLCTDKYDFTTHIQRGLHRNNAQVEKNGKPKE
modifications: [35S]methionine-labeled

biological target: GST-52K Cath-D (human) (UniProt P07339); test: pull-down; GST-Cath-D fusion proteins immobilised on glutathione-Sepharose beads, incubated overnight at 4°C with [35S]methionine-labeled in vitro translated proteins in PDB buffer (20 mM HEPES-KOH pH 7.9, 10% glycerol, 100 mM KCl, 5 mM MgCl2, 0.2 mM EDTA, 1 mM DTT) with 15 mg/ml BSA and 0.1% Tween-20; four washes; autoradiography; only the target purified

Question: How did the binding turn out when “full-length BAT3, radio-labeled (from UniProt P46379 1-1132)” was run?
Answer: The binding was “binds”.

biological target: GST-48K Cath-D (human); test: as above

Question: Which binding does the source give for B1 here?
Answer: Its binding is “binds”.

Question: Which binding does the source give for B2 here?
Answer: Its binding is “binds”.

Question: How did the binding turn out when B3 was run?
Answer: The binding was “binds”.

Question: For B4, which binding is on record?
Answer: Its binding is “no binding”.

Question: Which binding does the source give for B5 here?
Answer: The binding was “no binding”.

Question: How did the binding turn out when B6 was run?
Answer: The binding was “no binding”.
